Results are given in words; binding and its absence hold for the method and conditions named. In cells and extracts the contact can be indirect. Here binding means that the protein was enriched with, or labelled near, the bait; the list need not be complete.

By UniProt entry, the sequences of proteins in these tests, tags left out. Residues count along the entry.
UniProt P06136: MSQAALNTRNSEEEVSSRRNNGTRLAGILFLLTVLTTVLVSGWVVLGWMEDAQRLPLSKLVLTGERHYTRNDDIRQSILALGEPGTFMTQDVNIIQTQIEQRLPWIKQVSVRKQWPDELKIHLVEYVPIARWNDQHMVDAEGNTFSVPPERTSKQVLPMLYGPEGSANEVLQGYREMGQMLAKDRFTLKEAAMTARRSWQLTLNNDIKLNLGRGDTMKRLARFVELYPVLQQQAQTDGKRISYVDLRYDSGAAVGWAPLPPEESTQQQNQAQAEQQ
UniProt P24228, residues 21-477: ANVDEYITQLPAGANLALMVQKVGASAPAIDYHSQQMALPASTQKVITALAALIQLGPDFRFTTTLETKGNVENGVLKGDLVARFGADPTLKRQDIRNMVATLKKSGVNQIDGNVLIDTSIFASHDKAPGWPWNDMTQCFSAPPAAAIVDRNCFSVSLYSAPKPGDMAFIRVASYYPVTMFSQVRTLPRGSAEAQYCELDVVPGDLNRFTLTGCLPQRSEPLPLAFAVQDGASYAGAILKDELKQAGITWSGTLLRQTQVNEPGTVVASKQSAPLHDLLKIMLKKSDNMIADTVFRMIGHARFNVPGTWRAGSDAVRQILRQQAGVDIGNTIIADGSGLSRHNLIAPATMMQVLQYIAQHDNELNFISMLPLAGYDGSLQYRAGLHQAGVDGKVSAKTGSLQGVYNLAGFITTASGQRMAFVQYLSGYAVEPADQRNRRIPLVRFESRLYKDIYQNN

The target of test [1] is T1, NlpI, soluble version lacking its membrane anchor (Escherichia coli) (UniProt P0AFB1).
T1 sequence (chain, where used as fl-NlpI in MST, NT647 RED-NHS dye on amines): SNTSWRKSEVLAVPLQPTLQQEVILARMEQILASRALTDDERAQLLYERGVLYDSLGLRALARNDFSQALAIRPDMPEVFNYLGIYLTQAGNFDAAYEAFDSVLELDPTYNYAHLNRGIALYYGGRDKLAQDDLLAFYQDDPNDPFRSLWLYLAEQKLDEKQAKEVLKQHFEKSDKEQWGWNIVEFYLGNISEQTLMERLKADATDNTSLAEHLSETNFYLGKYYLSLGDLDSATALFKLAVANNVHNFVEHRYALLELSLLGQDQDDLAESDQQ
The test can be described thus: affinity purification with mass spectrometry; NlpI coupled to Sepharose; detergent-solubilized E. coli membrane extract bound at low salt (50 mM NaCl), 6°C, eluted with 1 M NaCl; label-free LC-MS against a Tris-Sepharose control column; only the target purified.

Test [2] concerns the target T1, NlpI, soluble version lacking its membrane anchor (Escherichia coli). The test can be described thus: affinity purification with mass spectrometry; NlpI coupled to Sepharose; detergent-solubilized E. coli membrane extract bound at high salt (400 mM NaCl), 6°C, eluted with 2 M NaCl; label-free LC-MS against a Tris-Sepharose control column; only the target purified.

In the case of “FtsQ, endogenous in E. coli membrane extract (from UniProt P06136 1-276)”, the binding result in test [1] and in test [2] was “binds” in each case.
Regarding “PBP4, endogenous in E. coli membrane extract (from UniProt P24228 21-477) (enzyme)”, in test [1], the binding entry was “binds”.

The record behind these values is article PMC7049810.
